These are yes or no findings as the source states them, for the method shown. In cells and extracts the contact can be indirect. Some binding calls cover weakened binding; strength is not graded here.
Biological target: T1, p140Cap (endogenous protein of MCF7 human breast carcinoma cell extracts) (human) (UniProt Q9C0H9)
T1 sequence (looked up): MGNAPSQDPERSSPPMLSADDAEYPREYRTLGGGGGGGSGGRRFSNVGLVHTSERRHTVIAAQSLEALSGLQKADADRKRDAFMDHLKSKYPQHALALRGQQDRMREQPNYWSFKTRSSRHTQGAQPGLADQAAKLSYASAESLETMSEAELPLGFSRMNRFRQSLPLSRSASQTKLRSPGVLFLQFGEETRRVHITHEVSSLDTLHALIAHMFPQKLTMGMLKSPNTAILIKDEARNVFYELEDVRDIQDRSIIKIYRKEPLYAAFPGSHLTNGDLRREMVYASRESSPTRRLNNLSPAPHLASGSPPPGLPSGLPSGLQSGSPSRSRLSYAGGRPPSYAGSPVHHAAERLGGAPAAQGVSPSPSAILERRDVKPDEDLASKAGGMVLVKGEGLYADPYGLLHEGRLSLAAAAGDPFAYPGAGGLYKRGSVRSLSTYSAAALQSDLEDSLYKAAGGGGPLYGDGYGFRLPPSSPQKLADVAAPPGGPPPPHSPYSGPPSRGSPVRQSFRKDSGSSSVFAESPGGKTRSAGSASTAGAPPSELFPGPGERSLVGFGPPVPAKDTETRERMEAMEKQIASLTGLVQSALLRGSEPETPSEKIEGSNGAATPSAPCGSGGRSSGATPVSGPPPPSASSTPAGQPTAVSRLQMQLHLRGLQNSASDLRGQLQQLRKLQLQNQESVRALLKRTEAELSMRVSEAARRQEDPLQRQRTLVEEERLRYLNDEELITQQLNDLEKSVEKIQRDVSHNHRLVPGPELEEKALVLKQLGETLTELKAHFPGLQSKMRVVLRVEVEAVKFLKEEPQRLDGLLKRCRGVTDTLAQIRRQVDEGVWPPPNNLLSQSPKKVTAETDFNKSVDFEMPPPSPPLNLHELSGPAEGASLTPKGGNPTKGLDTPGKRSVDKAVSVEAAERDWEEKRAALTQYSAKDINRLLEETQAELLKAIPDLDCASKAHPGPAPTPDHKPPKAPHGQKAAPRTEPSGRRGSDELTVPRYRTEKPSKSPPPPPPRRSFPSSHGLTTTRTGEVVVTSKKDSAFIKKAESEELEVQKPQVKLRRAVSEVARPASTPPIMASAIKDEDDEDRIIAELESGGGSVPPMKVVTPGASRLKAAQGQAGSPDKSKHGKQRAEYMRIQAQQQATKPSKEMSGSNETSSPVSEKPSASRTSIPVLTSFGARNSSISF
Test: reciprocal co-immunoprecipitation from MCF7 extracts, western blot

Chains of the proteins cited; added tags and fusions are not shown. Residues count along the entry.
UniProt P41240, residues 2-450: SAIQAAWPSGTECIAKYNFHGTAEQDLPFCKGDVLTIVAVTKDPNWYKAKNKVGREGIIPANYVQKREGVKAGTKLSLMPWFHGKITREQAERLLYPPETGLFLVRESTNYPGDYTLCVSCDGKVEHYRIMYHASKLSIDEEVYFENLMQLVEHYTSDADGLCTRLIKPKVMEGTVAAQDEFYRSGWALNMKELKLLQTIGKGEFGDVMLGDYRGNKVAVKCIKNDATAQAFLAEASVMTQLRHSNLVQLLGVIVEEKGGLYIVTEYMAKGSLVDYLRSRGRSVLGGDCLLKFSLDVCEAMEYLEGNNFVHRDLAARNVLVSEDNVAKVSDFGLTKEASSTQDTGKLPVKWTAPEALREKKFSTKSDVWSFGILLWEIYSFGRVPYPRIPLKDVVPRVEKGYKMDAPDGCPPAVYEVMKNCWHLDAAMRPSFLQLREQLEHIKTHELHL

C-terminal Src kinase (Csk), endogenous protein of MCF7 cells (from UniProt P41240 2-450) (enzyme)
binding: binds

— patent EP2061494B1
